Results deposited as PubChem BioAssay AID504793 (Drosophila RNAi Screening Center, 2011).
The screen tested about 23,000 reagents; shown is an unselected part of those that have a named target and a result. Of all reagents, 62 (0.27%) were called active. 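Calls come from follow-up tests whose scores are not deposited, so confirmed genes may have low counts here; counts are not normalised per plate.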 The raw values are shown without normalisation. Entries without a mark were called inactive. A plus sign joins genes that one reagent is predicted to hit.

- Screen: 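Whole-genome screen for parts of the DNA damage checkpoint at G2/M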 (primary screen)
- Cell system: Drosophila S2R+ cells
- Knock-down reagent: long dsRNA against Drosophila genes, about 0.25 µg dsRNA per well
- Duration: 4 days of dsRNA, then 4 hours of drug before read-out
- Treatment: doxorubicin 0.5 µM for 4 hours to cause double-strand breaks, in cells also given a low, harmless dose of dsRNA against nbs to sensitise the assay
- Measurement: 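Mitotic index as the number of phospho-histone H3-positive cells in each well following doxorubicin, given as raw counts without normalisation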
- Reading the numbers: mitotic cells: higher = more cells in mitosis, weaker G2 arrest
- Hit rule: 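a call needs confirmation in secondary tests, with other dsRNAs and a check of mitotic timing without damage, not just a high primary count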
- Calls: active = confirmed in follow-up tests; inactive = not confirmed

{"predicted target": "Hcs", "amplicon": "DRSC12070", "mitotic cells, replicate 1": 7}
{"predicted target": "Hcs", "amplicon": "DRSC12256", "mitotic cells, replicate 1": 4}
{"predicted target": "mfas", "amplicon": "DRSC16997", "mitotic cells, replicate 1": 5}
{"predicted target": "mfas", "amplicon": "DRSC28658", "mitotic cells, replicate 1": 5}
{"predicted target": "CG13933", "amplicon": "DRSC08402", "mitotic cells, replicate 1": 10}
{"predicted target": "scny", "amplicon": "DRSC10509", "mitotic cells, replicate 1": 11}
{"predicted target": "scny", "amplicon": "DRSC23229", "mitotic cells, replicate 1": 13}
{"predicted target": "scny", "amplicon": "DRSC27520", "mitotic cells, replicate 1": 20}
{"predicted target": "nac", "amplicon": "DRSC16520", "mitotic cells, replicate 1": 2}
{"predicted target": "CG42818 + Ca-Ma2d", "amplicon": "DRSC01963", "mitotic cells, replicate 1": 5}
{"predicted target": "CG42818 + Ca-Ma2d", "amplicon": "DRSC29730", "mitotic cells, replicate 1": 7}
{"predicted target": "CG11737", "amplicon": "DRSC14364", "mitotic cells, replicate 1": 3}
{"predicted target": "CG13049", "amplicon": "DRSC09930", "mitotic cells, replicate 1": 5}
{"predicted target": "CG13049", "amplicon": "DRSC24850", "mitotic cells, replicate 1": 3}
